Where two headings read alike, the source gives them in different places. Results are given in words; binding and its absence hold for the method and conditions named. Binding seen in cells or lysates may run through a third protein. These calls come from enrichment with a bait or labelling near it, and not all partners need be listed. No binding means not detected with the bait.
T1: FEZ1 (rat (endogenous in rat brain)) (UniProt P97577)
T1 sequence: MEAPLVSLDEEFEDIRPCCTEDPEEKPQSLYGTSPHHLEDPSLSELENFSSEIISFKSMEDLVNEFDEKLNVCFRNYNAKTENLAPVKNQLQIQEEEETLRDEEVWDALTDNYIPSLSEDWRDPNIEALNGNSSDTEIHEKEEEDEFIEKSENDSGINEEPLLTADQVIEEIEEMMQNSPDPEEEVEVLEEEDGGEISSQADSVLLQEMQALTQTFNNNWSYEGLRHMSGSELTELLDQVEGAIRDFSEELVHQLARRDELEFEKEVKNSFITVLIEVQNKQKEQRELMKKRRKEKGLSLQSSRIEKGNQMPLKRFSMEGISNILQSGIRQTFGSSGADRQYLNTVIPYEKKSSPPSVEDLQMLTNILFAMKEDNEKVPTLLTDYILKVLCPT


Legend:
Test in all cases: affinity purification with mass spectrometry; FEZ1- or Kinesin-1-containing vesicles immunoisolated from rat brain cortex supernatant S2 in PBS/BSA with anti-FEZ1 or anti-Kinesin-1 antibody overnight at 4 °C and Dynabeads Protein A, washed with PBS plus 0.3% BSA; label-free quantitative mass spectrometry against a control IP, 4 biological replicates
[1] = molecular target: T1, FEZ1 (rat (endogenous in rat brain))
[2] = molecular target: T1, FEZ1 (rat (endogenous in rat brain)); remark: listed apart in the source
[3] = molecular target: Kinesin-1 (rat (endogenous in rat brain))

Row | binding [1] | binding [2] | binding [3] | Molecule
1 | no binding | – | – | calsyntenin (rat (endogenous in rat brain))
2 | no binding | – | – | Rab11 (rat (endogenous in rat brain))
3 | – | no binding | no binding | syntaxin-13 (protein, UniProt G3V7P1 1-274) MSYGPLDMYRNPGPSGPQPRDFNSIIQTCSGNIQRISQATAQIKNLMSQLGTKQDSSKLQENLQQFQHSTNQLAKETNELLKELGSLPLPLSASEQRQQKLQKERLMNDFSSALNNFQVVQRKVSEKEKESIARARAGSRLSAEDRQREEQLVSFDSHEEWNQMQSQEEEAAITEQDLELIKERETAIQQLEADILDVNQIFKDLAMMIHDQGDLIDSIEANVESSEVHVERASDQLQRAAYYQKKSRKKMCILVLVLSVIVTVLVVVIWVASK

Further lines, the molecule ahead of its results:

Row | Molecule | binding [1] | binding [2] | binding [3]
4 | syntabulin (rat (endogenous in rat brain)) | no binding | – | –
5 | Rab4 (rat (endogenous in rat brain)) | no binding | – | –
6 | Rab5 (rat (endogenous in rat brain)) | no binding | – | –
7 | JIP2 (protein, UniProt G3V9M2 1-835) MADRAEMFSLSTFHSLSPPGCRPPQDISLEEFDDEDLSEITDDCGLGLSYDSDHCEKDSLSLGRSEQPHPICSFQDDFQEFEMIDDNEEEEDEEEEEEEEEEEDGDGDGRAGGGSGSQELSGESLIPSPSIEESHKLRPTTLHLTTLGAQDSLNNNSNGGFTSAPPSSWQETVLRSPVQEPLKELPAPLLPAEEEHHEVQSLARPGCDCEGNQPPEPPASGGASPSSDPGIEADLRSHSSGGHEGRRSSQELSSPGSDSEEAGGARLGRMISSISETELELSSDSGSSSGRSSHLTNSIEEASSPASEPEPEPEPEPLHEPPRRPAFLPVGQDDTNSEYESGSESEPDLSEDADSPWLLSNLVSRMISEGSSPIRCPGQCLSPPAPRPPEEAASQANPVPQDCPDPEAVAGPHVELVDMDTLCGPPPPAPAAPRLGPAQSGPCLFLSNPTRDTITPLWAPPGRTARPGRSCSAACSEEEEEDEEEDEEDEEDAEDSVIPPGSRTTGSTAPLDASLVYDAVKYTLVVDEHTQLELVSLRRCAGLDNDSEEDSSCEASEEEAGATLLGSDQVPEDASPDSPDLTFSKKFLNVFVNSTSRSSSTESFGLFSCVVNGEEREQTHRAVFRFIPRHPDELELDVDDPVLVEAEEDDFWFRGFNMRTGERGVFPAFYAHAVPGPAKDLLGSKRSPCWVDRFDVQFLGSVEVPCHQGNGILCAAMQKIATARKLTVHLRPPASCDLEISLRGVKLSLSGGGPEFQRCSHFFQMKNISFCGCHPRNSCYFGFITKHPLLSRFACHVFVSQESMRPVARSVGRAFLEYYQEHLAFACPTEDIYLE | – | no binding | no binding
8 | JIP1 (protein, UniProt Q9R237 1-708) MAERESGLSGGAASPPAASPFLGLHIASPPNFRLTHDISLEEFEDEDLSEITDECGISLQCKDTLSLRPPRAGLLSAGSSGSAGSRLQAEMLQMDLIDAASDTPGAEDDEEDDDELAAQRPGVGPSKAESGQEPASRSQGQGQGPGTGSGDTYRPKRPTTLNLFPQVPRSQDTLNNNSLGKKHSWQDRVSRSSSPLKTGEQTPPHEHICLSDELPPQGSPVPTQDRGTSTDSPCRRTAATQMAPPSGPPATAPGGRGHSHRDRIHYQADVRLEATEEIYLTPVQRPPDPAEPTSTFLPPTESRMSVSSDPDPAAYSVTAGRPHPSISEEDEGFDCLSSPEQAEPPGGGWRGSLGEPPPPPRASLSSDTSALSYDSVKYTLVVDEHAQLELVSLRPCFGDYSDESDSATVYDNCASASSPYESAIGEEYEEAPQPRPPTCLSEDSTPDEPDVHFSKKFLNVFMSGRSRSSSAESFGLFSCVINGEEHEQTHRAIFRFVPRHEDELELEVDDPLLVELQAEDYWYEAYNMRTGARGVFPAYYAIEVTKEPEHMAALAKNSDWIDQFRVKFLGSVQVPYHKGNDVLCAAMQKIATTRRLTVHFNPPSSCVLEISVRGVKIGVKADEAQEAKGNKCSHFFQLKNISFCGYHPKNNKYFGFITKHPADHRFACHVFVSEDSTKALAESVGRAFQQFYKQFVEYTCPTEDIYLE | – | no binding | no binding

From article PMC4887895
